Measurements reported in PubChem BioAssay AID493246 (Drosophila RNAi Screening Center, 2011)
Assay: 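Identify essential fly genes by loss of cell viability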 (primary screen). Cell system: Drosophila Kc and S2R+ cells. Reagents: long dsRNA against Drosophila genes. Measurement: 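Raw, unnormalised count of remaining cells in each well; per-plate z-scores of cell number underlie the calls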. Reading the numbers: Kc cell number and S2R+ cell number: higher = more cells remaining. Hit rule: 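Counted as a hit if cell number falls by a z-score of at least 3 within its plate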.
In all, the deposit lists about 21,000 reagents; shown is an unselected part of those with a known target gene and a result. Of all reagents, 429 (2%) were called active. 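Values are raw and not normalised between plates; calls rest on per-plate z-scores that were not deposited.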 A plus sign joins genes that one reagent is predicted to hit. Not given: the amount of reagent, the time to read-out.

Depletion of Mlf (Myelodysplasia/myeloid leukemia factor) [DRSC07472] came out at: Kc cell number, rep 1 = 1.67e6; Kc cell number, rep 2 = 1.67e6; S2R+ cell number, rep 1 = 8.86e5; S2R+ cell number, rep 2 = 9.65e5; inactive.
tank [DRSC00461] showed Kc cell number, rep 1 = 1.55e6; Kc cell number, rep 2 = 1.48e6; S2R+ cell number, rep 1 = 1.27e6; S2R+ cell number, rep 2 = 1.31e6; inactive.
CG10280 [DRSC12133] scored Kc cell number, rep 1 = 1.62e6; Kc cell number, rep 2 = 1.98e6; S2R+ cell number, rep 1 = 1.24e6; S2R+ cell number, rep 2 = 1.41e6; inactive.
Obp47b + CG7741 [DRSC06330] gave Kc cell number, rep 1 = 1.69e6; Kc cell number, rep 2 = 1.75e6; S2R+ cell number, rep 1 = 1.38e6; S2R+ cell number, rep 2 = 1.49e6; inactive.
CG10761 [DRSC17753] gave Kc cell number, rep 1 = 1.52e6; Kc cell number, rep 2 = 1.50e6; S2R+ cell number, rep 1 = 1.05e6; S2R+ cell number, rep 2 = 1.17e6; inactive.
Silencing of Aasdh (Aminoadipate-semialdehyde dehydrogenase) [DRSC03467] resulted in: Kc cell number, rep 1 = 1.75e6; Kc cell number, rep 2 = 1.86e6; S2R+ cell number, rep 1 = 1.34e6; S2R+ cell number, rep 2 = 1.46e6; inactive.
With knock-down of CG1840 [DRSC19806], the screen gave Kc cell number, rep 1 = 5.57e5; S2R+ cell number, rep 1 = 9.23e5; inactive.

3 successive entries from above:
Mlf (Myelodysplasia/myeloid leukemia factor) [DRSC07472]: Kc cell number, rep 1 = 1.67e6; Kc cell number, rep 2 = 1.67e6; S2R+ cell number, rep 1 = 8.86e5; S2R+ cell number, rep 2 = 9.65e5; outcome = inactive
tank [DRSC00461]: Kc cell number, rep 1 = 1.55e6; Kc cell number, rep 2 = 1.48e6; S2R+ cell number, rep 1 = 1.27e6; S2R+ cell number, rep 2 = 1.31e6; outcome = inactive
CG10280 [DRSC12133]: Kc cell number, rep 1 = 1.62e6; Kc cell number, rep 2 = 1.98e6; S2R+ cell number, rep 1 = 1.24e6; S2R+ cell number, rep 2 = 1.41e6; outcome = inactive

Further results follow.
CG4998 [DRSC10466] gave Kc cell number, rep 1 = 1.41e6; Kc cell number, rep 2 = 1.42e6; S2R+ cell number, rep 1 = 1.21e6; S2R+ cell number, rep 2 = 1.34e6; inactive.
With knock-down of HUWE1 [DRSC20089], the screen gave Kc cell number, rep 1 = 1.62e6; Kc cell number, rep 2 = 1.68e6; S2R+ cell number, rep 1 = 1.12e6; S2R+ cell number, rep 2 = 1.19e6; inactive.
Silencing of CG3308 [DRSC15474] resulted in: Kc cell number, rep 1 = 1.59e6; Kc cell number, rep 2 = 1.60e6; S2R+ cell number, rep 1 = 1.29e6; S2R+ cell number, rep 2 = 1.35e6; inactive.
Depletion of Taz (Tafazzin) [DRSC07704] came out at: Kc cell number, rep 1 = 1.60e6; Kc cell number, rep 2 = 1.62e6; S2R+ cell number, rep 1 = 1.16e6; S2R+ cell number, rep 2 = 1.26e6; inactive.
Against wat (waterproof) [DRSC14854], the entry reads Kc cell number, rep 1 = 1.72e6; Kc cell number, rep 2 = 1.79e6; S2R+ cell number, rep 1 = 1.11e6; S2R+ cell number, rep 2 = 1.24e6; inactive.
Sirt6 (Sirtuin 6) [DRSC16010] showed Kc cell number, rep 1 = 1.48e6; Kc cell number, rep 2 = 1.48e6; S2R+ cell number, rep 1 = 1.27e6; S2R+ cell number, rep 2 = 1.37e6; inactive.
bocks (bocksbeutel) [DRSC16489] scored Kc cell number, rep 1 = 1.83e6; Kc cell number, rep 2 = 1.97e6; S2R+ cell number, rep 1 = 1.45e6; S2R+ cell number, rep 2 = 1.59e6; inactive.
Knock-down of slp2 (sloppy paired 2) [DRSC00836] resulted in: Kc cell number, rep 1 = 1.64e6; Kc cell number, rep 2 = 1.61e6; S2R+ cell number, rep 1 = 1.24e6; S2R+ cell number, rep 2 = 1.41e6; inactive.
Knock-down of dpp (decapentaplegic) [DRSC00118] resulted in: Kc cell number, rep 1 = 1.63e6; Kc cell number, rep 2 = 1.66e6; S2R+ cell number, rep 1 = 1.06e6; S2R+ cell number, rep 2 = 1.27e6; inactive.
Against dpp (decapentaplegic) [DRSC00121] the deposit lists Kc cell number, rep 1 = 1.51e6; Kc cell number, rep 2 = 1.50e6; S2R+ cell number, rep 1 = 1.02e6; S2R+ cell number, rep 2 = 1.17e6; inactive.
After knock-down of dpp (decapentaplegic) [DRSC00813], the screen gave Kc cell number, rep 1 = 1.49e6; Kc cell number, rep 2 = 1.52e6; S2R+ cell number, rep 1 = 9.97e5; S2R+ cell number, rep 2 = 1.17e6; inactive.
Gycbeta100B (Guanylyl cyclase beta-subunit at 100B) [DRSC14039] showed Kc cell number, rep 1 = 1.06e6; Kc cell number, rep 2 = 1.22e6; S2R+ cell number, rep 1 = 1.05e6; S2R+ cell number, rep 2 = 1.07e6; inactive.
With knock-down of Gycbeta100B (Guanylyl cyclase beta-subunit at 100B) [DRSC14040], the record shows Kc cell number, rep 1 = 1.29e6; Kc cell number, rep 2 = 1.51e6; S2R+ cell number, rep 1 = 1.04e6; S2R+ cell number, rep 2 = 1.12e6; inactive.
Gycbeta100B (Guanylyl cyclase beta-subunit at 100B) [DRSC16691] scored Kc cell number, rep 1 = 6.21e5; S2R+ cell number, rep 1 = 8.97e5; inactive.
